# PubChem BioAssay AID1458 (National Center for Advancing Translational Sciences (NCATS), 2008)
# Out of some 210,000 compounds screened, about 5,900 (2.8%) were called active. Another 5% or so got no clear call; they are omitted. Calls come from the whole dose curve; as a rule, active = well fitted activation curve with a large enough effect; inconclusive = small, poorly fitted or top-dose-only effect; inactive = no such curve, though single readings can be large or run the other way. Only a part is listed here, and it is no random draw. Entries without a call were filed so in the source.
# Experiment: qHTS Assay for Enhancers of SMN2 Splice Variant Expression; note: nearly all actives have a fitted effect of over 55% in size; for activity change, positive = activation: % of control where 0% means no effect
# Conditions: HEK293 SMN2-luciferase splicing reporter, luminescence, 30-36 h; activity change, positive = activation: at 46.1 µM (top of the series) unless noted
# Summary of the method: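 qHTS luciferase splicing reporter: luminescence rises when SMN2 exon 7 is included in transfected HEK293 cells. Compound exposure lasted 30-36 h at 37C, with 4.5 mM final sodium butyrate as control, followed by a ONE-Glo read.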
# Potency is the fitted concentration of half-maximal effect.
Structure (SMILES),Potency,"activity change, positive = activation"
O=S(=O)(Cc1cc(-c2ccc(Cl)cc2)no1)c1ccccc1,active: 12.6 µM,–
O=C1C(Cl)=C(N2CCN(Cc3ccccc3)CC2)C(=O)N1c1ccccc1,–,34.8%
O=c1[nH]c(N/N=C/c2ccccc2)nc2ccccc12,active: 14.1 µM,–
N#Cc1c(NC(=O)c2ccccc2)sc2c1CCCCC2,active: 0.631 µM,–
CO/N=C(\C(=O)N[C@@H]1C(=O)N2C(C(=O)O)=C(COC(C)=O)CS[C@H]12)c1csc(N)n1 (stereo in doubt),–,-11.5%
CCNC(=S)N(CCc1c(C)[nH]c2ccc(C)cc12)Cc1cccs1,–,inactive: -109%
Oc1c(Cl)cc(Cl)cc1C=Nc1ccc2c(c1)OCCO2,–,26.8%
O=C(Nc1cnc2ccccc2c1)c1ccco1,active: 14.1 µM,–
CC(=O)Nc1ccc(NC(=O)C(C)OC(=O)C2(c3ccc(F)cc3)CCCC2)cc1 (stereo unspecified),–,inactive: -72.7%
O=C(c1ccco1)N1CCN(c2nc(-c3ccc(F)cc3)cs2)CC1,–,-35%
Cc1ccc(NC(=O)/C(=C/c2ccncc2)NC(=O)c2ccccc2)cc1,–,49.2%
CCN(C(=O)c1cc2c(s1)-c1ccccc1OC2)c1cc(Cl)ccc1OC,–,inactive: -58.6%
S=c1[nH]cnc2sc(-c3ccccc3)cc12,–,33.3%
C=CCOc1ccc2nc(NC(=O)OC)[nH]c2c1,active: 11.2 µM,–
CN(C)/C=C1\Oc2ccc3ccccc3c2C1=O,active: 17.8 µM,–
Cc1cccc(NC(=O)/C=C/c2ccc3c(c2)OCO3)n1,active: 2.24 µM,–
Cc1[nH]c2c(Cl)cccc2c(=O)c1CN1CCCC1,–,36.4%
CN1c2ccccc2C(C)(C)C12CC(c1ccc(Cl)c(S(=O)(=O)N3CCCC3)c1)=NO2 (stereo unspecified),–,106%
CC(=O)c1ccc(N2CCCC2)c(F)c1,–,30.8%
Cn1cc(-c2nnc(-c3ccccc3)o2)c2ccccc21,active: 2.51 µM,–
O=C(NCCc1nc2ccccc2[nH]1)c1ccc(F)cc1,–,37.1%
Cc1cc(Cl)ccc1OCc1nc(-c2ccncc2)no1,active: 12.6 µM,–
Clc1ccc(-c2cn3nc4c(nc3n2)CCCC4)cc1,active: 1.78 µM,–

# Whole records from above.
# `Clc1ccc(-c2cn3nc4c(nc3n2)CCCC4)cc1` in the list: Potency: active: 1.78 µM
# `Cn1cc(-c2nnc(-c3ccccc3)o2)c2ccccc21` in the list: Potency: active: 2.51 µM

# Next structures follow:

Structure (SMILES),Potency,"activity change, positive = activation"
CNc1ccccc(-c2ccc3cc4c(cc3n2)OCO4)c1=O,–,173%
O=C(c1cc2ccccc2oc1=O)N1CCN(c2ccccn2)CC1,–,57.9%
CCOC(=O)c1ccc(NC(=O)CC2C(=O)N(c3ccc(F)cc3)C(=O)N2Cc2ccc3c(c2)OCO3)cc1 (stereo unspecified),–,inactive: -50.7%
COc1ccc(OC)c(S(=O)(=O)Nc2ccc(F)cc2)c1,–,41.4%
CCCCOC(=O)NC1(C)CCS(=O)(=O)C1 (stereo unspecified),–,20.6%
CN(c1ccc(OCc2nnc(-c3ccccc3)o2)cc1)S(=O)(=O)c1ccccc1,–,-42.4%
Fc1ccccc1NC(=S)Nc1ccc(CN2CCOCC2)cc1,–,-16.6%
C/C(N)=C(/C#N)C(=O)CSc1nc2ccccc2c(=O)n1-c1ccccc1C,–,inactive: -56.7%
O=C(Nc1ccc(NC(=O)c2cccs2)cc1Cl)c1ccco1,–,76.4%
CCOC(=O)c1ccc(-n2[nH]c(-c3ccccc3)cc2=O)cc1,–,inactive: -72.8%
Cc1nc(-n2[nH]c3c(c2=O)CCCC3)[nH]c(=O)c1Cc1ccccc1,–,-78.7%
COc1ccc(-n2c(O)c(C=Nc3ccccc3)c3ccccc3c2=O)cc1,–,inactive: -2.75%
Cc1cccc(NS(=O)(=O)c2ccc(C3CCCCC3)cc2)c1,–,inactive: -38.4%
CCOCCOCCC(C(=O)O)P(=O)(c1ccccc1)c1ccccc1 (stereo unspecified),–,15.9%
C/C(=N\OC(=O)c1cccc(Cl)c1)c1sc(C)nc1C,–,-53.4%
Cc1ccc(/C=N/NC(=O)CSc2nnc(-c3ccc(Cl)cc3)n2-c2ccccc2)o1,–,-26.7%
Cc1scc(C(=O)N2CCN(S(C)(=O)=O)CC2)c1-c1ccccc1,–,47%
O=C1c2cccc(OCC(=O)N3CCCc4ccccc43)c2CCN1Cc1ccccc1,–,-84%
CN1CCN(C(=O)c2cnn3c(C(F)(F)F)cc(-c4ccc5c(c4)OCO5)nc23)CC1,–,33.5%
O=C(O)c1cccc(-n2nnnc2SCc2ccccn2)c1,–,38.7%
O=C(C1CC(c2ccc(F)cc2)=NO1)N1CCCCC1 (stereo unspecified),active: 28.2 µM,–
CCn1c(SCC(=O)N/N=C/C=C/c2ccco2)nnc1-c1ccccc1,–,inactive: -40.9%
c1ccc(COc2ccc(OCCn3cncn3)cc2)cc1,active: 11.2 µM,–

Structure (SMILES),Potency,"activity change, positive = activation"
COc1ccc2nc(NC(=O)CSc3nc(C)cc(=O)[nH]3)sc2c1,–,35.2%
CC(C)OC(=O)NCCOC(=O)Nc1cccc(Cl)c1,–,inactive: -33.7%
C=CCN1C(=O)/C(=C/c2ccsc2)SC1=S,–,inactive: -66.6%
CCCCN(C)C(=O)C1CCN(CCCc2ccccc2)CC1,–,31.7%
Cc1csc(NC(=O)c2ccc(OCC3CCCO3)cc2)n1 (stereo unspecified),active: 1.41 µM,–
Cc1cc(C)cc(NC(=S)NCCN(C2CCCCC2)C2CCCC2)c1,–,inactive: -37.4%
CCn1c(SCC(=O)Nc2nonc2C)nnc1-c1ccco1,–,35.7%
CC(C)C(=O)N1CCN(c2ccc(NC(=O)c3ccc4c(c3)OCCO4)cc2Cl)CC1,–,inactive: -40.9%
CCC(C)(C)NC(=O)C(c1cccn1C)N(Cc1ccc(C)cc1)C(=O)Cn1nnc2ccccc21 (stereo unspecified),active: 15.8 µM,–
CCn1c2ccccc2c2cc(CN3CCN(Cc4cc(OC)ccc4O)CC3)ccc21,–,-44.7%
COc1ccc(-n2ncc3c(SCC(=O)N4CCN(c5ccccc5OC)CC4)ncnc32)cc1,–,inactive: -45.2%
COc1ccc(CCNC(=O)COc2ccc(S(=O)(=O)NC(C)C)cc2)cc1OC,–,-30.3%
COC(=O)c1c(F)c(F)c(N2CCOCC2)c(F)c1F,–,75.8%
Cc1sc2nc3n(c(=O)c2c1C)CCCS3,–,73.7%
CC(C)(C)NCCCCOc1ccccc1F,–,45.5%
Cc1cc(N/N=C/c2ccccc2Cl)nc(NCc2ccccc2)n1,–,inactive: -31%
Cc1cc(NC(=O)c2ccc(Cl)cc2)c(C)cc1O,–,33%
CCOC(=O)C1=C(CN2CCN(c3cc(C)ccc3C)CC2)NC(=O)NC1c1ccc(Cl)cc1 (stereo unspecified),–,inactive: -49.6%
Cn1ncc2nc[nH]c(=O)c21,–,37.9%
Cc1cc(SC(C)C(=O)Nc2ncc(Cl)cc2Cl)nc2ccccc12 (stereo unspecified),active: 3.55 µM,–
Cc1ccc(C(=O)Nc2onc3c2CCCC3)cc1,active: 2.51 µM,–
O=C(c1cc(-c2ccc(Cl)c(Cl)c2)on1)N1CCCCC1,active: 22.4 µM,–
Cc1noc(NS(=O)(=O)c2ccc(N/C=C/C(=O)c3ccc(F)cc3)cc2)c1C,–,inactive: -27%

# Structures above containing a cyano group (2):
Structure (SMILES),Potency,"activity change, positive = activation"
N#Cc1c(NC(=O)c2ccccc2)sc2c1CCCCC2,active: 0.631 µM,–
C/C(N)=C(/C#N)C(=O)CSc1nc2ccccc2c(=O)n1-c1ccccc1C,–,inactive: -56.7%

# (listing goes on)

Structure (SMILES),Potency,"activity change, positive = activation"
CCOC(=O)CSc1nnc(-c2ccc(S(=O)(=O)N3CCOCC3)cc2)n1-c1ccccc1,–,31.6%
Cc1cc(Oc2ccc(=O)n(C)n2)nc(Oc2ccc(=O)n(C)n2)n1,–,43.5%
Cc1ccc(CNc2ccc3c(c2)ncn3C)cc1,active: 17.8 µM,–
CCOc1ccc(NS(=O)(=O)c2cc(OCC(N)=O)c(C)cc2Cl)cc1,–,-50.2%
Cc1ccccc1C1CC(c2ccccc2OC(F)F)Nc2ncnn21 (stereo unspecified),–,36.5%
CNS(=O)(=O)c1ccccc1C(=N)c1ccccc1,–,23% [at 9.22 µM]
C=CCOc1ccc2c(c1)C(=NO)c1cc(OCC=C)ccc1-2,–,inactive: -34%
NC(=O)Nc1ccccc1C(=O)NCCc1ccccc1,–,33.9%
COc1cccc(CNC(=O)CCC2CCCN(Cc3cc4ccccc4o3)C2)c1 (stereo unspecified),–,inactive: -39.4%
Cn1nnnc1SCC(=O)Nc1nc2c(s1)CCCC2,–,146%
COC(=O)N1C(C)=Cc2ccccc2C1CC(C)=O (stereo unspecified),inactive,–
C=CCNC(=S)N/N=C/c1ccc(N(CC)Cc2ccccc2)cc1,–,-32.3%
O=C(O)C1CCCCC1C(=O)Nc1ccc2c(c1)CCC2 (stereo unspecified),–,23%
CCc1ccc(NC2Nc3cc(C)nn3S2)cc1 (stereo unspecified),active: 11.2 µM,–
COCCCNC(=O)Cn1nnc(-c2ccc(NC(=O)c3ccc(F)cc3)cc2)n1,–,38.4%
COc1ccccc1/C=C/C(=O)NCCC1=CCCCC1,active: 11.2 µM,–
Cc1ccc(NC(=O)c2ccc3c(c2)OCCO3)cc1S(=O)(=O)Nc1cccc(Cl)c1,–,-98.9%
O=C(CCCOc1ccccc1)Nc1nc2ccccc2[nH]1,–,125%
Cc1ccc(NC(=O)c2ccco2)c([N+](=O)[O-])c1,active: 22.4 µM,–
CCc1nnc(NC(=O)c2c(O)c3c([nH]c2=O)CCCC3)s1,active: 14.1 µM,–
CCN1CCN(Cc2coc3ccc(C)cc3c2=O)CC1,–,32.1%
Cc1ccc(CC23CN4CCN(CC(C4)C2O)C3)c(C)c1 (stereo unspecified),–,45%
CCCCOC(=O)Nc1ccc(N2CCOCC2)cc1,active: 11.2 µM,–

Structure (SMILES),Potency,"activity change, positive = activation"
CCOC(=O)CSc1nc2cc(OCC)ccc2cc1C#N,active: 22.4 µM,–
CCOc1nc(-c2ccc(C)cc2)ccc1-c1noc(-c2cccnc2)n1,–,38%
Cc1ccc(NC(=O)NC(=O)N(C2CCCCC2)S(=O)(=O)c2ccccc2)cc1,active: 7.94 µM,–
CC(C)CNC(=S)NC(=O)c1ccc(Cl)cc1,–,173%
COc1ccc(C(=O)N=c2sc3ccccc3n2C)cc1,active: 2.51 µM,–
CCCCCCn1ccc(=N)cc1,–,inactive: -64.8%
O=c1[nH]c(SCc2cccc(Cl)c2)nc2[nH]ncc12,–,45.6%
O=C(CN1CCN(CC(=O)c2ccc(F)cc2)CC1)Nc1ccccc1Cl,–,17.8%
COc1ccc(C(=O)Cn2c(C(=O)/C=C/c3ccccc3)nc3ccccc32)cc1,–,-50.4%
CC(=O)c1cccc(NC(=O)C=C(C)C)c1,–,18.8%
CN(C)S(=O)(=O)c1ccc(Cl)c(NC(=O)CN2CCC(Cc3ccccc3)CC2)c1,–,inactive: -39.5%
CCOC(=O)c1ccc2nc(NC(=O)c3cccs3)sc2c1,active: 3.98 µM,–
CC(CN1CCCCC1)OC(=O)C1c2ccccc2Oc2ccccc21 (stereo unspecified),–,70.7%
COc1ccc(NC(=O)C2CCCO2)cc1Cl (stereo unspecified),–,51.7%
CN(C)S(=O)(=O)c1ccc2oc(SCC(=O)Nc3ccccc3F)nc2c1,active: 11.2 µM,–
Cc1nnc(Sc2nc3ccccc3o2)c2ccccc12,–,44.4%
COC(=O)Nc1ccc2c(c1)N(C(=O)CCN1CCOCC1)c1ccccc1S2,–,38.8%
NS(=O)(=O)c1cccnc1Nc1c(Cl)cccc1Cl,–,32.5%
CC1CC2=C(C(=O)O1)C(c1ccccc1)Nc1ccccc1N2 (stereo unspecified),–,31%
